Assay results: PubChem BioAssay AID1347423 (Functional Genomics Laboratory (NCATS/FGL), 2020)
In all, about 52,000 sequences went through this assay and about 210 (0.4%) were called active.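 The calls were made as follows: active = gene whose silencing raises cell survival under the drug, median off-target-corrected z-score across its silencing RNAs 2 or more; inactive = the rest.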 The list shows a part of the results.

Experiment: Resistance to Poly (ADP-Ribose) Polymerase inhibitor: Gene Identification via Genome-wide siRNA Screen
Conditions: mouse BRCA2 R2336H ES cells, olaparib, CellTiter-Glo viability; active compounds read high
In short: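 Mouse BRCA2 R2336H ES cells were reverse-transfected with siRNA (20 nM final), treated at 48 h with 500 nM olaparib, and read by CellTiter-Glo after 72 h. Scores: MAD-based z per siRNA, median per gene, seed off-target correction.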

Sequence | z-score
GGAGCCUAUCGCUUUACUCTT against Vps16 | inactive: -1.01
GGCAGUAUGCUCCCAGAAUTT against Fndc4 | inactive: -2.54
CGUAUUCCAUGAAUUCUGUTT against Rnf121 | inactive: 0.718
GCUCUAAGGACCAUAUACCTT against Ppm1d | inactive: 0.522
GGCGGUAAAUCAAGUGGAATT against 1810013B01Rik | inactive: 0.686
GCAUAGAAUACAAAGAUGATT against 9630058J23Rik | inactive: 0.179
GGGAAUUCUGAAAUCAUUCTT against B930062P21Rik | inactive: 0.249
GGUUUUAUCAGAAUGUCAGTT against Atpaf2 | inactive: -0.67
CCCUGUCAUGUCAGUGUGATT against Cml1 | inactive: -1.96
GGAAACAACUUUCUAUAACTT against V1ri6 | inactive: -0.157
GGCAUCACAGAAGGUUUAUTT against Rock2 | inactive: -0.819
GGACUUUCGUGAUUGUAGATT against Prkdc | inactive: -0.105
CCUUUUACUAGACACAGUCTT against 9030603L14Rik | inactive: -0.455
CGAGCUAUACGGAAAAAAATT against BC060267 | inactive: 0.103
GGCAAGUUAAGGUAUAUGGTT against Eftud1 | inactive: -1.13
GGAGCUUCUCAUGACCUUUTT against 4832428D23Rik | inactive: -0.505
GGGAACUGAAUUUUUCAGUTT against Ank3 | inactive: 0.432
GCGAUUUGUGGUUCUCAUATT against Rnf103 | inactive: 0.512
GGCUGAAGGAGCAAUCAAATT against L3mbtl3 | inactive: 1.46
CCUAAAAGCAGGCCAAAAUTT against Dhx29 | inactive: -0.35
GGAGCUAGAUAGGAAAAAATT against Vill | inactive: -0.564
GGAUAAACAUCAUCUAUGGTT against Olfr604 | inactive: -0.153

Quoted from the listing.
GGAGCUAGAUAGGAAAAAATT against Vill | z-score: inactive: -0.564
GCGAUUUGUGGUUCUCAUATT against Rnf103 | z-score: inactive: 0.512

Continued.

Sequence | z-score
GGCUAUAGGGAUGAUCAUATT against Cysltr1 | inactive: -1.09
GCAGCUAAGCACUGGAAAATT against Coq4 | inactive: -0.986
GCUGACUUUUAGUCAAGGATT against D630005B22Rik | inactive: 1.01
GGAAGUCCUGGACAUUCAGTT against Nfkbie | inactive: -2.49
GGGUCAAUUAUUUAUGGUUTT against D830046C22Rik | inactive: 0.328
GGUGUCUGCCUUACCAUAUTT against Dyrk1a | inactive: 0.416
GCAAGAUCCAGAACACUCATT against Adora1 | inactive: -0.691
CCAGAUGCAGUCACAAGUCTT against Klf4 | inactive: 0.422
GGAAUAGUAACUCUUUCUCTT against LOC114601 | inactive: 0.204
GGACAUUUUUGACCACAUATT against Nat1 | inactive: -1.44
GGCAGCACAAGAAAAAGAATT against Arid5a | inactive: -1.59
GGAUAAAUGGUUCUAGAAATT against 3110006P09Rik | active: -0.433
GAAAGAGAGUAAAGAGCCGTT against Ly6i | inactive: 0.732
GGUAAAGUGACCGAACACUTT against 9630033F20Rik | inactive: -1.9
GGACAGAGCUACACAAACUTT against V1rg9 | inactive: -0.158
GGUGUACCAAGUGUUUUCATT against 2210404D11Rik | inactive: -0.88
GGAGACAGCUAAGAAACUGTT against Hsd11b2 | inactive: -0.559
GGAGAAGAGAAAAAAGGAUTT against Pla1a | inactive: -0.388
GGUUCUGGCUCUUCUCUGUTT against Mogat2 | inactive: -1.48
GGAGCAAAAGAAGAAGAACTT against Mtdh | inactive: -0.0748
GCUCAUGUUGCUGUUAAUATT against 6230416J20Rik | inactive: -1.04
GGAUCUGAUGCGUCAGAGATT against Tnrc15 | inactive: -0.861

Sequence | z-score
CCAUACAUCCGAGAGUUUGTT against Snrp70 | inactive: -2.85
GGAACACAUCAACAUUCACTT against Cttn | inactive: -0.156
GGCCAAGAUCAUCUUUGUGTT against Ak1 | inactive: -1.33
GGAGCUGCUAUAGAAGUACTT against Ankrd23 | inactive: -1.53
GGAAGUGAAGAUGAUGAAUTT against Cpsf3 | inactive: 0.369
GGGAAAUGCUGAUUCUCGATT against 9230117E20Rik | inactive: 0.891
CCAAUCAAUUCUCAGCGACTT against Sufu | inactive: -0.473
CCGAUUGAAUGAACAACGGTT against Zfp131 | inactive: -1.63
CCAAAUUGGGUCUAUAAGGTT against 4930517K11Rik | inactive: 0.301
GGUCUUUGUAUGUCUGUUUTT against Rad51l3 | inactive: -0.375
GGACUCUGUAGUUGAAGAUTT against Pogz | inactive: -0.377
GUAUGCUGGCAGCUCAUUGTT against Klra6 | inactive: 2.14
CCGAAGUGCAACAAGCCAATT against Abl2 | inactive: -0.134
GGAAAACACAACAUGAUACTT against Doc2b | inactive: -0.334
CGUAUGAAGCUUAAUAGCATT against Polq | inactive: -0.632
GGUGUGCAUUGGAAUUAUGTT against Mogat1 | inactive: 0.198
CCUUGUCCUAUGUUAGGCATT against E030025D05Rik | inactive: -0.598
CCUGUACAUUGUGUAAUGUTT against Pcdh8 | inactive: 1.17
GGAGAUUUCCAAGAUUCUGTT against Abcc4 | inactive: 0.188
CCCAAGGUGAUGGUGUCCUTT against Hspa1l | inactive: 0.318
GAUGAAGCUGCUUUACCACTT against Hes5 | inactive: -0.507
GGAGCCAUUAUAUAUGUCATT against Abi2 | inactive: 0.542

Laid out differently: entries from further up.
CGUAUGAAGCUUAAUAGCATT against Polq
  z-score: inactive: -0.632
GGAGCCAUUAUAUAUGUCATT against Abi2
  z-score: inactive: 0.542
